# PubChem BioAssay AID1904 | GNF – 2009
# Assay: 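Gene silencing that lengthens or shortens period, or boosts amplitude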 (follow-up of hits)
# System: human U2OS osteosarcoma cells stably expressing a destabilised luciferase driven by the Bmal1 promoter
# Reagent: siRNA pair against human genes, 12.5 nM (two siRNAs, 0.5 pmol each, per well)
# Duration: about 3 days after transfection, then luminescence recorded for about 4 days
# Detection: 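Bmal1 reporter light output measured every 2 hours over several days, detrended, then fitted to give period and amplitude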
# Active means: 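Scored active if separate single siRNAs repeated the clock phenotype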
# Meaning of the calls: active = confirmed by single siRNAs; inactive = not confirmed
# This is not the whole library: the list holds selected reagents. 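Lists only primary-screen hits; phenotype classes come from fitted traces, and the underlying luminescence values are not given.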 Reagents against one gene are numbered here. Reagent sequences are not shown.
The opening 9 entries as a preview:
Gene,reagent no.,clock phenotype class,confirmed with single siRNAs,Outcome
B4GALT2,1,shorter clock period; seen with two independent siRNA pairs for the gene,phenotype reproduced by individual siRNAs,active
MAD2L1,1,longer clock period; seen with two independent siRNA pairs for the gene,phenotype not reproduced by individual siRNAs,inconclusive
MAD2L1,2,longer clock period; seen with two independent siRNA pairs for the gene,phenotype not reproduced by individual siRNAs,inconclusive
KIAA1797,1,longer clock period; seen with two independent siRNA pairs for the gene,phenotype reproduced by individual siRNAs,active
KIAA1797,2,longer clock period; seen with two independent siRNA pairs for the gene,phenotype reproduced by individual siRNAs,active
MT3,1,higher rhythm amplitude; seen with one siRNA pair in duplicate wells,phenotype reproduced by individual siRNAs,active
MT3,2,higher rhythm amplitude; seen with one siRNA pair in duplicate wells,phenotype reproduced by individual siRNAs,active
LOC349136,1,longer clock period; seen with two independent siRNA pairs for the gene,phenotype reproduced by individual siRNAs,active
FUT5,1,longer clock period; seen with two independent siRNA pairs for the gene,phenotype not reproduced by individual siRNAs,inconclusive

Results, repeating the preview:
Gene,reagent no.,clock phenotype class,confirmed with single siRNAs,Outcome
B4GALT2,1,shorter clock period; seen with two independent siRNA pairs for the gene,phenotype reproduced by individual siRNAs,active
MAD2L1,1,longer clock period; seen with two independent siRNA pairs for the gene,phenotype not reproduced by individual siRNAs,inconclusive
MAD2L1,2,longer clock period; seen with two independent siRNA pairs for the gene,phenotype not reproduced by individual siRNAs,inconclusive
KIAA1797,1,longer clock period; seen with two independent siRNA pairs for the gene,phenotype reproduced by individual siRNAs,active
KIAA1797,2,longer clock period; seen with two independent siRNA pairs for the gene,phenotype reproduced by individual siRNAs,active
MT3,1,higher rhythm amplitude; seen with one siRNA pair in duplicate wells,phenotype reproduced by individual siRNAs,active
MT3,2,higher rhythm amplitude; seen with one siRNA pair in duplicate wells,phenotype reproduced by individual siRNAs,active
LOC349136,1,longer clock period; seen with two independent siRNA pairs for the gene,phenotype reproduced by individual siRNAs,active
FUT5,1,longer clock period; seen with two independent siRNA pairs for the gene,phenotype not reproduced by individual siRNAs,inconclusive
FUT5,2,longer clock period; seen with two independent siRNA pairs for the gene,phenotype not reproduced by individual siRNAs,inconclusive
BSCL2,1,longer clock period; seen with two independent siRNA pairs for the gene,phenotype reproduced by individual siRNAs,active
BSCL2,2,longer clock period; seen with two independent siRNA pairs for the gene,phenotype reproduced by individual siRNAs,active
VMD2,1,higher rhythm amplitude; seen with one siRNA pair in duplicate wells,not retested with individual siRNAs,
VMD2,2,higher rhythm amplitude; seen with one siRNA pair in duplicate wells,not retested with individual siRNAs,
PAQR4,1,longer clock period; seen with two independent siRNA pairs for the gene,phenotype reproduced by individual siRNAs,active
PAQR4,2,longer clock period; seen with two independent siRNA pairs for the gene,phenotype reproduced by individual siRNAs,active
FOXL1,1,higher rhythm amplitude; seen with one siRNA pair in duplicate wells,phenotype reproduced by individual siRNAs,active
FOXL1,2,higher rhythm amplitude; seen with one siRNA pair in duplicate wells,phenotype reproduced by individual siRNAs,active
UNC119,1,longer clock period; seen with two independent siRNA pairs for the gene,phenotype reproduced by individual siRNAs,active
UNC119,2,longer clock period; seen with two independent siRNA pairs for the gene,phenotype reproduced by individual siRNAs,active
MGC5309,1,longer clock period; seen with two independent siRNA pairs for the gene,not retested with individual siRNAs,
MGC5309,2,longer clock period; seen with two independent siRNA pairs for the gene,not retested with individual siRNAs,
NUP88,1,longer clock period; seen with two independent siRNA pairs for the gene,phenotype reproduced by individual siRNAs,active
NUP88,2,longer clock period; seen with two independent siRNA pairs for the gene,phenotype reproduced by individual siRNAs,active
FLJ30469,1,shorter clock period; seen with one siRNA pair in duplicate wells,phenotype not reproduced by individual siRNAs,inconclusive
FLJ30469,2,shorter clock period; seen with one siRNA pair in duplicate wells,phenotype not reproduced by individual siRNAs,inconclusive
MPN2,1,longer clock period; seen with two independent siRNA pairs for the gene,phenotype reproduced by individual siRNAs,active
MPN2,2,longer clock period; seen with two independent siRNA pairs for the gene,phenotype reproduced by individual siRNAs,active
C10orf137,1,longer clock period; seen with two independent siRNA pairs for the gene,phenotype reproduced by individual siRNAs,active
C10orf137,2,longer clock period; seen with two independent siRNA pairs for the gene,phenotype reproduced by individual siRNAs,active
BAI3,1,higher rhythm amplitude; seen with one siRNA pair in duplicate wells,phenotype not reproduced by individual siRNAs,inconclusive
BAI3,2,higher rhythm amplitude; seen with one siRNA pair in duplicate wells,phenotype not reproduced by individual siRNAs,inconclusive
PKLR,1,longer clock period; seen with two independent siRNA pairs for the gene,phenotype reproduced by individual siRNAs,active
PKLR,2,longer clock period; seen with two independent siRNA pairs for the gene,phenotype reproduced by individual siRNAs,active
RRH,1,longer clock period; seen with two independent siRNA pairs for the gene,phenotype reproduced by individual siRNAs,active
RRH,2,longer clock period; seen with two independent siRNA pairs for the gene,phenotype reproduced by individual siRNAs,active
SLC39A12,1,higher rhythm amplitude; seen with one siRNA pair in duplicate wells,phenotype not reproduced by individual siRNAs,inconclusive
SLC39A12,2,higher rhythm amplitude; seen with one siRNA pair in duplicate wells,phenotype not reproduced by individual siRNAs,inconclusive
MAPK8,1,longer clock period; seen with two independent siRNA pairs for the gene,phenotype reproduced by individual siRNAs,active
MAPK8,2,longer clock period; seen with two independent siRNA pairs for the gene,phenotype reproduced by individual siRNAs,active
ICAM5,1,longer clock period; seen with two independent siRNA pairs for the gene,phenotype not reproduced by individual siRNAs,inconclusive
ICAM5,2,longer clock period; seen with two independent siRNA pairs for the gene,phenotype not reproduced by individual siRNAs,inconclusive
CSE1L,1,longer clock period; seen with two independent siRNA pairs for the gene,phenotype reproduced by individual siRNAs,active
CSE1L,2,longer clock period; seen with two independent siRNA pairs for the gene,phenotype reproduced by individual siRNAs,active
PEF,1,longer clock period; seen with two independent siRNA pairs for the gene,phenotype reproduced by individual siRNAs,active
PEF,2,longer clock period; seen with two independent siRNA pairs for the gene,phenotype reproduced by individual siRNAs,active
POLR3F,1,longer clock period; seen with two independent siRNA pairs for the gene,phenotype reproduced by individual siRNAs,active
POLR3F,2,longer clock period; seen with two independent siRNA pairs for the gene,phenotype reproduced by individual siRNAs,active
HAS3,1,longer clock period; seen with two independent siRNA pairs for the gene,phenotype not reproduced by individual siRNAs,inconclusive
COPS2,1,shorter clock period; seen with one siRNA pair in duplicate wells,phenotype not reproduced by individual siRNAs,inconclusive
COPS2,2,shorter clock period; seen with one siRNA pair in duplicate wells,phenotype not reproduced by individual siRNAs,inconclusive
PARD6A,1,longer clock period; seen with two independent siRNA pairs for the gene,phenotype reproduced by individual siRNAs,active
PARD6A,2,longer clock period; seen with two independent siRNA pairs for the gene,phenotype reproduced by individual siRNAs,active
GPR40,1,shorter clock period; seen with one siRNA pair in duplicate wells,not retested with individual siRNAs,
GPR40,2,shorter clock period; seen with one siRNA pair in duplicate wells,not retested with individual siRNAs,
RNF34,1,longer clock period; seen with two independent siRNA pairs for the gene,phenotype reproduced by individual siRNAs,active
RNF34,2,longer clock period; seen with two independent siRNA pairs for the gene,phenotype reproduced by individual siRNAs,active
ZNF75,1,higher rhythm amplitude; seen with one siRNA pair in duplicate wells,phenotype reproduced by individual siRNAs,active
ZNF75,2,higher rhythm amplitude; seen with one siRNA pair in duplicate wells,phenotype reproduced by individual siRNAs,active
HIST1H1B,1,higher rhythm amplitude; seen with one siRNA pair in duplicate wells,phenotype reproduced by individual siRNAs,active
HIST1H1B,2,higher rhythm amplitude; seen with one siRNA pair in duplicate wells,phenotype reproduced by individual siRNAs,active
MGC2941,1,longer clock period; seen with two independent siRNA pairs for the gene,phenotype reproduced by individual siRNAs,active
MGC2941,2,longer clock period; seen with two independent siRNA pairs for the gene,phenotype reproduced by individual siRNAs,active
RBL1,1,longer clock period; seen with two independent siRNA pairs for the gene,phenotype reproduced by individual siRNAs,active
RBL1,2,longer clock period; seen with two independent siRNA pairs for the gene,phenotype reproduced by individual siRNAs,active
e(y)2,1,longer clock period; seen with two independent siRNA pairs for the gene,phenotype reproduced by individual siRNAs,active
e(y)2,2,longer clock period; seen with two independent siRNA pairs for the gene,phenotype reproduced by individual siRNAs,active
PEA15,1,higher rhythm amplitude; seen with two independent siRNA pairs for the gene,phenotype reproduced by individual siRNAs,active
PEA15,2,higher rhythm amplitude; seen with two independent siRNA pairs for the gene,phenotype reproduced by individual siRNAs,active
HRB2,1,longer clock period; seen with two independent siRNA pairs for the gene,not retested with individual siRNAs,
HRB2,2,longer clock period; seen with two independent siRNA pairs for the gene,not retested with individual siRNAs,
CX3CL1,1,longer clock period; seen with two independent siRNA pairs for the gene,phenotype reproduced by individual siRNAs,active
CX3CL1,2,longer clock period; seen with two independent siRNA pairs for the gene,phenotype reproduced by individual siRNAs,active
SOCS4,1,longer clock period; seen with two independent siRNA pairs for the gene,phenotype reproduced by individual siRNAs,active
SOCS4,2,longer clock period; seen with two independent siRNA pairs for the gene,phenotype reproduced by individual siRNAs,active
PIK3R5,1,longer clock period; seen with two independent siRNA pairs for the gene,phenotype reproduced by individual siRNAs,active
PIK3R5,2,longer clock period; seen with two independent siRNA pairs for the gene,phenotype reproduced by individual siRNAs,active
NR0B2,1,shorter clock period; seen with one siRNA pair in duplicate wells,phenotype reproduced by individual siRNAs,active
NR0B2,2,shorter clock period; seen with one siRNA pair in duplicate wells,phenotype reproduced by individual siRNAs,active
GJB7,1,longer clock period; seen with two independent siRNA pairs for the gene,phenotype reproduced by individual siRNAs,active
FBXW11,1,longer clock period; seen with two independent siRNA pairs for the gene,phenotype reproduced by individual siRNAs,active
FBXW11,2,longer clock period; seen with two independent siRNA pairs for the gene,phenotype reproduced by individual siRNAs,active
SLC8A2,1,higher rhythm amplitude; seen with one siRNA pair in duplicate wells,phenotype reproduced by individual siRNAs,active
SLC8A2,2,higher rhythm amplitude; seen with one siRNA pair in duplicate wells,phenotype reproduced by individual siRNAs,active
